Laboratory results as given in PMC11540556.
No constants are given. Whether binding was seen depends on the method and setting. In cells and extracts the contact can be indirect. Some entries that bind do so weakly or less than the wild type.

By UniProt entry, the sequences of proteins in these tests, tags left out.
UniProt Q8IVF6: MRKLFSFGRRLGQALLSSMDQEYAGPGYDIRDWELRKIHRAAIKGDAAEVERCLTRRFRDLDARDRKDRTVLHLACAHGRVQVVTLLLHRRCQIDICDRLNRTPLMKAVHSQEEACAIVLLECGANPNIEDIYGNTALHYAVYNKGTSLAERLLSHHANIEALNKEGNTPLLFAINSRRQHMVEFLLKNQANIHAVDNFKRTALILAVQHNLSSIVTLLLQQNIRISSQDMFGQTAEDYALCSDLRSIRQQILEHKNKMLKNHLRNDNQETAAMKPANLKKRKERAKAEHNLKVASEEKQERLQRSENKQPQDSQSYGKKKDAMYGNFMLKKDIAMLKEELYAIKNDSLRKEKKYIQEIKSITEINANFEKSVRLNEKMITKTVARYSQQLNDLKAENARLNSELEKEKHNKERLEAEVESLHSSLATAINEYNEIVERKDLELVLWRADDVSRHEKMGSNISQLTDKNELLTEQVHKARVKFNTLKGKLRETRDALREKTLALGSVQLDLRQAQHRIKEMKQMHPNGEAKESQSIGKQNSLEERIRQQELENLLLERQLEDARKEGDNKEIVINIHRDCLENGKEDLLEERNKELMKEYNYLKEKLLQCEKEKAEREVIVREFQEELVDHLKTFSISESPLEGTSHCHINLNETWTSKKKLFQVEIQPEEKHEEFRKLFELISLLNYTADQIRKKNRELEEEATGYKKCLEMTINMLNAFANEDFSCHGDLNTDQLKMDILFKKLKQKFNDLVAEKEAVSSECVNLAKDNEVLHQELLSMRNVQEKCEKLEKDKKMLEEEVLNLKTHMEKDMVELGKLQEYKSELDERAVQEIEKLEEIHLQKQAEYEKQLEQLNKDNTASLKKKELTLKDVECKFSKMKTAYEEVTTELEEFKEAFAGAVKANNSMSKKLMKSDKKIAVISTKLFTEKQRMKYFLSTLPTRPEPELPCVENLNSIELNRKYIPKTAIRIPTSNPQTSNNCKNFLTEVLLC

Target: Flag-Pim-3 (provirus-integrating site for Moloney murine leukemia virus 3) (human) (UniProt Q86V86)
Assay: co-IP; HepG2/SOR cells coexpressing Flag-Pim-3 and HA-ANKRD18A, lysed in an NP40-based buffer; supernatant with anti-FLAG or anti-HA beads for 2 h; Western blot

For “HA-ANKRD18A (Ankyrin repeat domain-containing protein 18A) (from UniProt Q8IVF6 1-992)”, the binding was “binds”.
